In this assay the target is T1, KRP1 (Arabidopsis thaliana) (UniProt Q67Y93).
T1 sequence: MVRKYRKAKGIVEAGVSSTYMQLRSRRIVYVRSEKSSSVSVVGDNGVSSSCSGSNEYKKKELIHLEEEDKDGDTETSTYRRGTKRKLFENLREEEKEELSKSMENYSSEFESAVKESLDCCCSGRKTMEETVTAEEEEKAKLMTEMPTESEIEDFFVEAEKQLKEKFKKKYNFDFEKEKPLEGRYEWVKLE
The assay is described as follows: split reporter; BiFC of CDKA;1 variants with cyclins, KRPs and CKS; semiquantitative, by number of positive cells and fluorescence intensity; each interaction tested at least three times; as described in ref. 66.

Chains of the proteins cited; added tags and fusions are not shown.
UniProt P24100: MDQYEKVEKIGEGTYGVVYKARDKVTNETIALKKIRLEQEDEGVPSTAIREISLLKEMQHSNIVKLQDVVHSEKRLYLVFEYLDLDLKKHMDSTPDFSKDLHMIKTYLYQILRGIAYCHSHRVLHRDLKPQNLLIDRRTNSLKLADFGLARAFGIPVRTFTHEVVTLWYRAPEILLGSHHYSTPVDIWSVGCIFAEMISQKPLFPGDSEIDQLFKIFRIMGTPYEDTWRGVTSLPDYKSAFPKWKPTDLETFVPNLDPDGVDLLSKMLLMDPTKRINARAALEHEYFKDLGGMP

No constants are given. Whether binding was seen depends on the method and setting. Binding seen in cells or lysates may run through a third protein. Some binding calls cover weakened binding; strength is not graded here.

As for “CDKA;1 (wild-type form) (from UniProt P24100 1-294) (enzyme)”, the binding result is given as “binds”.

These data come from paper PMC3410867.
